In the supplement of paper PMC7661543:
± gives the standard deviation of the averaged measurements. Differences between knockout arms are mostly noise.

Test system: ZR-75-1
Test: relative cell number vs DMSO control (72 h) (% of DMSO); higher = less growth inhibition (more cells)
Method: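 QMAP-Seq: a pool of 5 breast cancer cell lines (ZR-75-1, SKBR3, HCC-38, MDA-MB-231, BT-20), each carrying 12 doxycycline-inducible Cas9 sgRNA perturbations (11 knockouts plus non-targeting sgNT), was treated with compounds for 72 h at four 10-fold doses (10 nM-10 uM or 1 nM-1 uM range). Barcodes were amplified and sequenced, and cell number was interpolated from 293T spike-in standard curves. The result is expressed as % of the median of DMSO wells. Two biological replicates.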

[1] = sgRNA knockout: sgATF3, 1000 nM
[2] = sgRNA knockout: sgATF3, 10000 nM
[3] = sgRNA knockout: sgATF4, 1000 nM
[4] = sgRNA knockout: sgATF4, 10000 nM
[5] = sgRNA knockout: sgATF6, 1000 nM
[6] = sgRNA knockout: sgATF6, 10000 nM
[7] = sgRNA knockout: sgATG7, 1000 nM
[8] = sgRNA knockout: sgATG7, 10000 nM
[9] = sgRNA knockout: sgERN1, 1000 nM
[10] = sgRNA knockout: sgERN1, 10000 nM
[11] = sgRNA knockout: sgHSF2, 1000 nM
[12] = sgRNA knockout: sgHSF2, 10000 nM
[13] = sgRNA knockout: sgNFE2L2, 10 nM
[14] = sgRNA knockout: sgNFE2L2, 100 nM
[15] = sgRNA knockout: sgNFE2L2, 1000 nM
[16] = sgRNA knockout: sgNFE2L2, 10000 nM
[17] = sgRNA knockout: sgSLC35F2, 10 nM
[18] = sgRNA knockout: sgSLC35F2, 100 nM
[19] = sgRNA knockout: sgSLC35F2, 1000 nM
[20] = sgRNA knockout: sgSLC35F2, 10000 nM
[21] = sgRNA knockout: sgXBP1, 1000 nM
[22] = sgRNA knockout: sgXBP1, 10000 nM

Row | Compound | relative cell number (sgRNA knockout: sgATF3, 10 nM) | relative cell number (sgRNA knockout: sgATF3, 100 nM) | relative cell number [1] | relative cell number (sgRNA knockout: sgATF4, 10 nM) | relative cell number (sgRNA knockout: sgATF4, 100 nM) | relative cell number [3] | relative cell number (sgRNA knockout: sgATF6, 10 nM) | relative cell number (sgRNA knockout: sgATF6, 100 nM) | relative cell number [5] | relative cell number (sgRNA knockout: sgATG7, 10 nM) | relative cell number (sgRNA knockout: sgATG7, 100 nM) | relative cell number [7] | relative cell number (sgRNA knockout: sgERN1, 10 nM) | relative cell number (sgRNA knockout: sgERN1, 100 nM) | relative cell number [9] | relative cell number (sgRNA knockout: sgHSF2, 10 nM) | relative cell number (sgRNA knockout: sgHSF2, 100 nM) | relative cell number [11] | relative cell number [13] | relative cell number [14] | further results
1 | COc1cc(CCc2cc(NC(=O)c3ccc(N4CC(C)NC(C)C4)cc3)n[nH]2)cc(OC)c1 (stereo not given) [AZD4547] | 99 ± 18 | 82.5 ± 30 | 85.1 ± 15 | 80 ± 33 | 76.4 ± 14 | 107 ± 31 | 85.5 ± 0.58 | 107 ± 17 | 108 ± 62 | 95.8 ± 14 | 69.03 ± 0.41 | 95 ± 2.7 | 68 ± 23 | 90.4 ± 9.1 | 84.1 ± 18 | 89.6 ± 23 | 90 ± 30 | 90.6 ± 11 | 111 ± 30 | 87.96 ± 0.19 | relative cell number [2]: 30.3 ± 1.6; relative cell number [4]: 26.9 ± 16; relative cell number [6]: 29.1 ± 4.3; relative cell number [8]: 15.2 ± 2.5; relative cell number [10]: 33.5 ± 7.8; relative cell number [12]: 34.8 ± 2.9; relative cell number [15]: 117 ± 5.1; relative cell number [16]: 35.1 ± 0.76; relative cell number [17]: 69.9 ± 11; relative cell number [18]: 70.6 ± 46; relative cell number [19]: 64.4 ± 12; relative cell number [20]: 34.8 ± 6.5; relative cell number (sgRNA knockout: sgXBP1, 10 nM): 91.3 ± 5.6; relative cell number (sgRNA knockout: sgXBP1, 100 nM): 83.3 ± 6.8; relative cell number [21]: 102 ± 2.9; relative cell number [22]: 32.1 ± 1.8
2 | COc1nc(N)nc2c1ncn2[C@@H]1O[C@H](CO)[C@@H](O)[C@@H]1O [Nelarabine] | 136.1 ± 0.75 | 84 ± 50 | 106 ± 30 | 127 ± 3.2 | 101 ± 15 | 97.2 ± 26 | 72.8 ± 22 | 111 ± 39 | 82.9 ± 13 | 85.8 ± 17 | 99.5 ± 10 | 101 ± 3.5 | 108 ± 17 | 105 ± 4.1 | 93.5 ± 17 | 115 ± 6.9 | 105 ± 14 | 102 ± 28 | 97.5 ± 6.4 | 126 ± 3.8 | relative cell number [2]: 84.2 ± 6.1; relative cell number [4]: 99.4 ± 18; relative cell number [6]: 91 ± 29; relative cell number [8]: 104 ± 9.8; relative cell number [10]: 73.6 ± 17; relative cell number [12]: 92.7 ± 13; relative cell number [15]: 102 ± 30; relative cell number [16]: 132 ± 37; relative cell number [17]: 139 ± 2.5; relative cell number [18]: 66.5 ± 7; relative cell number [19]: 147 ± 27; relative cell number [20]: 96.5 ± 64; relative cell number (sgRNA knockout: sgXBP1, 10 nM): 117 ± 1.9; relative cell number (sgRNA knockout: sgXBP1, 100 nM): 116 ± 7.6; relative cell number [21]: 92.8 ± 12; relative cell number [22]: 127 ± 58
3 | COc1cc2nc(N3CCCN(C)CC3)nc(NC3CCN(Cc4ccccc4)CC3)c2cc1OC | 121 ± 21 | 82.6 ± 31 | 117 ± 27 | 76.6 ± 19 | 107 ± 20 | 122 ± 8.1 | 69.6 ± 5.7 | 106 ± 48 | 91.4 ± 13 | 73.1 ± 23 | 112 ± 16 | 80.3 ± 3.8 | 108 ± 72 | 79.19 ± 0.53 | 85.2 ± 5 | 135 ± 8.2 | 119 ± 6.7 | 119 ± 9.6 | 119 ± 32 | 88.4 ± 19 | relative cell number [2]: 4.76 ± 3.4; relative cell number [4]: 2.43 ± 1.2; relative cell number [6]: 2.5 ± 1.7; relative cell number [8]: 3.32 ± 1.3; relative cell number [10]: 3.6 ± 2.9; relative cell number [12]: 2.73 ± 1.3; relative cell number [15]: 96.6 ± 16; relative cell number [16]: 3.11 ± 1.8; relative cell number [17]: 84.2 ± 21; relative cell number [18]: 64.8 ± 20; relative cell number [19]: 74.5 ± 16; relative cell number [20]: 3.17 ± 0.99; relative cell number (sgRNA knockout: sgXBP1, 10 nM): 114 ± 26; relative cell number (sgRNA knockout: sgXBP1, 100 nM): 97.7 ± 6.4; relative cell number [21]: 86.2 ± 4.3; relative cell number [22]: 2.54 ± 0.73
4 | C=C(c1ccc(C(=O)O)cc1)c1cc2c(cc1C)C(C)(C)CCC2(C)C [Bexarotene] | 99.6 ± 29 | 61.4 ± 32 | 83.8 ± 25 | 101 ± 8.8 | 64.7 ± 6.4 | 88.5 ± 13 | 87.3 ± 10 | 61.1 ± 29 | 48 ± 8.8 | 95.8 ± 13 | 73.5 ± 12 | 82.4 ± 14 | 98.2 ± 6.1 | 73.8 ± 8.6 | 89 ± 18 | 92.7 ± 2.5 | 69.2 ± 3 | 87.6 ± 6.9 | 116 ± 18 | 97.7 ± 2.2 | relative cell number [2]: 73.3 ± 12; relative cell number [4]: 92.8 ± 39; relative cell number [6]: 70.4 ± 15; relative cell number [8]: 80.1 ± 11; relative cell number [10]: 102 ± 4.3; relative cell number [12]: 76.5 ± 22; relative cell number [15]: 92.3 ± 5.1; relative cell number [16]: 78.8 ± 4.1; relative cell number [17]: 60.9 ± 15; relative cell number [18]: 48.3 ± 26; relative cell number [19]: 55.3 ± 38; relative cell number [20]: 47.8 ± 22; relative cell number (sgRNA knockout: sgXBP1, 10 nM): 103 ± 5.5; relative cell number (sgRNA knockout: sgXBP1, 100 nM): 73.8 ± 6.9; relative cell number [21]: 80.9 ± 5; relative cell number [22]: 91.5 ± 8.9
5 | CCc1c2c(nc3ccc(O)cc13)-c1cc3c(c(=O)n1C2)COC(=O)[C@]3(O)CC [SN38] | 44.3 ± 11 | 23.5 ± 0.99 | 30.2 ± 7.7 | 70.3 ± 16 | 24.6 ± 3.1 | 15.4 ± 15 | 40.8 ± 18 | 25.2 ± 14 | 29.9 ± 2.1 | 50.6 ± 5.3 | 30.6 ± 4 | 24.1 ± 4.2 | 57.4 ± 13 | 38.6 ± 4.6 | 41.8 ± 5.5 | 43.2 ± 7.2 | 29 ± 4.5 | 18 ± 11 | 46.7 ± 0.6 | 32.3 ± 12 | relative cell number (sgRNA knockout: sgATF3, 1 nM): 111 ± 39; relative cell number (sgRNA knockout: sgATF4, 1 nM): 77.3 ± 35; relative cell number (sgRNA knockout: sgATF6, 1 nM): 82.1 ± 5.9; relative cell number (sgRNA knockout: sgATG7, 1 nM): 82.6 ± 1.4; relative cell number (sgRNA knockout: sgERN1, 1 nM): 80.5 ± 20; relative cell number (sgRNA knockout: sgHSF2, 1 nM): 104 ± 8.1; relative cell number (sgRNA knockout: sgNFE2L2, 1 nM): 78.8 ± 9.7; relative cell number [15]: 27.5 ± 6.9; relative cell number (sgRNA knockout: sgSLC35F2, 1 nM): 58.7 ± 8.5; relative cell number [17]: 60.6 ± 15; relative cell number [18]: 29.682 ± 0.018; relative cell number [19]: 26.3 ± 10; relative cell number (sgRNA knockout: sgXBP1, 1 nM): 104 ± 15; relative cell number (sgRNA knockout: sgXBP1, 10 nM): 43.5 ± 8.6; relative cell number (sgRNA knockout: sgXBP1, 100 nM): 30.4 ± 2.3; relative cell number [21]: 28.3 ± 1.4
